{"sequences": {"note": "Protein sequences, listed by entry. Tags and fused reporters are not part of them. Lines headed by an entry give the natural chain unless they say otherwise; changes in a name come on top. Chains listed by the source or under a name are the forms on record and can include a tag or linker.", "PKCβ2 (P05771-2, form named)": "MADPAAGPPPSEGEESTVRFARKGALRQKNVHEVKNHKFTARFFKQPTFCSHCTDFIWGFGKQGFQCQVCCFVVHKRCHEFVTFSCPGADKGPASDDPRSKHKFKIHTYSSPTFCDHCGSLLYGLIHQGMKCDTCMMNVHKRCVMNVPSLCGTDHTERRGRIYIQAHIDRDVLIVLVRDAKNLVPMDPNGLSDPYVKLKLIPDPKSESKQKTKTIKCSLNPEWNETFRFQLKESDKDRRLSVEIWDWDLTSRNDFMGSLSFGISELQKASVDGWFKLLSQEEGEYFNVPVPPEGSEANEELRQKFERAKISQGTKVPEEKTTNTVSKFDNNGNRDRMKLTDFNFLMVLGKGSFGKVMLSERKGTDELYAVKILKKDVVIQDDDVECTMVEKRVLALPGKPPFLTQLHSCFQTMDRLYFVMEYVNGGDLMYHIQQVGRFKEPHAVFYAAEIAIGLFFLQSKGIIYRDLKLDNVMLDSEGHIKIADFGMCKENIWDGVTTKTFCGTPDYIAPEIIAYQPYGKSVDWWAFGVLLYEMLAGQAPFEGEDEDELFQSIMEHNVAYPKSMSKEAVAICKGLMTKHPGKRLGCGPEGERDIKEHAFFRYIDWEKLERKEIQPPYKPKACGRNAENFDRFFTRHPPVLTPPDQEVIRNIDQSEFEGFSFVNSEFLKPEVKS"}, "source": "paper PMC9922819", "assay_in_all_cases": "co-IP; cell lysates (1% Nonidet P-40 buffer pH 8, 137 mM NaCl, 2 mM EDTA) immunoprecipitated with anti-Orai1 antibody and protein A-agarose overnight at 4 °C, blotted with anti-PKCβ2; cells at rest or stimulated with 100 μM CCh (1-30 min; 5 min for the variants) in the presence of extracellular …", "key": {"[1]": {"target": "Orai1α-eGFP (CMV-promoter) (UniProt Q96D31)"}, "[2]": {"target": "native Orai1 (human (endogenous in HEK-293)) (UniProt Q96D31)"}, "[3]": {"target": "Orai1β-eGFP (CMV-promoter) (UniProt Q96D31)"}, "[4]": {"target": "Orai1α N-terminal deletion mutant Orai1αΔN1–38 (pEYFP) (UniProt Q96D31)"}}, "note": "These are yes or no findings as the source states them, for the method shown. Binding seen in cells or lysates may run through a third protein. Some results given as binding are weak or reduced against the parent protein; the word gives no strength.", "data": [{"substance": "PKCβ2 (from UniProt P05771-2 1-673) (enzyme)", "values": [{"measurement": "binding", "setting": "[1]", "value": "binds"}, {"measurement": "binding", "setting": "[2]", "value": "binds"}, {"measurement": "binding", "setting": "[3]", "value": "no binding"}, {"measurement": "binding", "setting": "[4]", "value": "binds"}]}]}
